Results: publication PMC8403986
These are yes or no findings as the source states them, for the method shown. In cells and extracts the contact can be indirect. Binding can be weak; no strength is given.

Sequences of proteins named here, by UniProt entry; tags and fusion partners are left off. A change or cut given only in a name is not applied to a line headed by its entry.
UniProt O15169: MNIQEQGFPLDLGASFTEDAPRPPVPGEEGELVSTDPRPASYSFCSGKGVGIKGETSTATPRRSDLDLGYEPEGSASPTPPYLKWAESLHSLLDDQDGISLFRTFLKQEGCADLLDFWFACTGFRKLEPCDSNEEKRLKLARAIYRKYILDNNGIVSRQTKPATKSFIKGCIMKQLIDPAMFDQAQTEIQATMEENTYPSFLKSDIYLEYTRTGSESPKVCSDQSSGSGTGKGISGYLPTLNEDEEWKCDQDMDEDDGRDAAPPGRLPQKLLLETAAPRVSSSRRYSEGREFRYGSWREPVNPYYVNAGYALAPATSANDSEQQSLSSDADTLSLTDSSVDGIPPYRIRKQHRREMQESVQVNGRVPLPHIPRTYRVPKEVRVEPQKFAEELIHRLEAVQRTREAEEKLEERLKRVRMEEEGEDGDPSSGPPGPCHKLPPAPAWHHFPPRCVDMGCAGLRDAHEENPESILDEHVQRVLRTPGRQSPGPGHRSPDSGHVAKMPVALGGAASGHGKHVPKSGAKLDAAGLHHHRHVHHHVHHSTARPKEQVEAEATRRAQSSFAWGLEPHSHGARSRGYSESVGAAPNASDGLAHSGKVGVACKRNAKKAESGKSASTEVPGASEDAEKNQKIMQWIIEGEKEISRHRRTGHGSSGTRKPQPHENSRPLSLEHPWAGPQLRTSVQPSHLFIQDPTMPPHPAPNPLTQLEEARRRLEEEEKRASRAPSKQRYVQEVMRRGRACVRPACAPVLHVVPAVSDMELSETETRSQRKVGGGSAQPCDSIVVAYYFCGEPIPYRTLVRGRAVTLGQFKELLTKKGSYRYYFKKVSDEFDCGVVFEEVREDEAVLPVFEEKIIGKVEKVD
UniProt P35222: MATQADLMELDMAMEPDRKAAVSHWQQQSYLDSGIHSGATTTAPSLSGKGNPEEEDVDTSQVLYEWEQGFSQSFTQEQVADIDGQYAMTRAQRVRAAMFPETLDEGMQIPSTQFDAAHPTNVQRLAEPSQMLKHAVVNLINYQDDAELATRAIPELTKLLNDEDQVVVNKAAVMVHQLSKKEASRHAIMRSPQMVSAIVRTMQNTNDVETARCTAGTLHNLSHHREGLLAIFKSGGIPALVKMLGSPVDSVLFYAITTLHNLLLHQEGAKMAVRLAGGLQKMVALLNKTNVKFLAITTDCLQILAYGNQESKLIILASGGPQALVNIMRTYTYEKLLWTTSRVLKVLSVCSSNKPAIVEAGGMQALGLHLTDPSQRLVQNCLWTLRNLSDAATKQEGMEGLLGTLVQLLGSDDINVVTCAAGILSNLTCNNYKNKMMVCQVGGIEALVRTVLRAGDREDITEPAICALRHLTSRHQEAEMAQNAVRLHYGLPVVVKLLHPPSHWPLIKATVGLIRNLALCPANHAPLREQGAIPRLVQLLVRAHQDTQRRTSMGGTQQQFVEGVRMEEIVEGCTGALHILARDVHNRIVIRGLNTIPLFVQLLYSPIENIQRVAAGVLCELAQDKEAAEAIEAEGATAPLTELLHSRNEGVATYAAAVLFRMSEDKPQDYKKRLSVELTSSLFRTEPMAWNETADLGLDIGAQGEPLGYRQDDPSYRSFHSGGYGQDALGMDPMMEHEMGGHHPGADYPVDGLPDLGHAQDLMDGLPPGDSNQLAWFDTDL

Molecular target: AXIN1 M3-dStrepII (polymerization-deficient mutant) (human) (UniProt O15169)
Test: pull-down; Strep-Tactin Sepharose purification via AXIN1-dStrepII (wild type or M3) from lysates of Sf9 cells co-expressing an APC variant, CK1α, GSK3β and β-catenin; 50 mM HEPES-NaOH pH 7.5, 150 mM NaCl, 4°C, 2 h; SDS-PAGE with Coomassie and immunoblot

binding: binds
Substance: β-catenin, full length, co-expressed in the destruction complex (from UniProt P35222 1-781)
